# Reference: patent US20130184320A1, “Imine Compounds” (BASF SE, priority 2010, published 2013)
# Some of these results come from one statement about several compounds together. For some assays here: At least one structure is not confirmed: it was looked up by name or label, or the drawing left a doubt.
# Experiments:
# Type in all cases: in vivo
# Plutella xylostella = assay: B.3 Diamond back moth leaf dip test on Chinese cabbage; details: 500 ppm, recorded 24, 72 and 120 hours after treatment
# Method: B.3 Diamond Back Moth (Plutella xylostella)
# Leaves of Chinese cabbage were dipped in test solution and air-dried. Treated leaves were placed in petri dished lined with moist filter paper. Mortality was recorded 24, 72, and 120 hours after treatment.
# Ceratitis capitata = assay: B.5 Mediterranean fruitfly microtiter plate diet test; details: 2500 ppm; Mediterranean fruitfly eggs and larvae on diet; 5 days
# Method: B.5 Mediterranean Fruitfly (Ceratitis capitata)
# For evaluating control of Mediterranean fruitfly (Ceratitis capitata) the test unit consisted of microtiter plates containing an insect diet and 50-80 C. capitata eggs.
# The compounds were formulated using a solution containing 75% v/v water and 25% v/v DMSO. Different concentrations of formulated compounds were sprayed onto the insect diet at 5 μl, using a custom built micro atomizer, at two replications.
# (§1) After application, microtiter plates were incubated at about 28±1° C. and about 80±5% relative humidity for 5 days. Egg and larval mortality was then visually assessed.
# Megoura viciae = assay: B.10 Vetch aphid broad bean leaf disk test; details: 2500 ppm; vetch aphid on bean leaf disks; 5 days
# Spodoptera eridania = assay: B.9 Southern armyworm spray test on lima bean plants; details: 300 ppm; southern armyworm larvae on sprayed lima bean; 4 days
# Anthonomus grandis = assay: B.12 Boll weevil microtiter plate diet test; details: 2500 ppm; boll weevil eggs and larvae on diet; 5 days
# Method: B.12 Boll Weevil (Anthonomus grandis)
# For evaluating control of boll weevil (Anthonomus grandis) the test unit consisted of 24-well-microtiter plates containing an insect diet and 20-30 A. grandis eggs.
# The compounds were formulated using a solution containing 75% v/v water and 25% v/v DMSO. Different concentrations of formulated compounds were sprayed onto the insect diet at 20 μl, using a custom built micro atomizer, at two replications.
# After application, microtiter plates were incubated at about 23±1° C. and about 50±5% relative humidity for 5 days. Egg and larval mortality was then visually assessed.
# Heliothis virescens = assay: B.11 Tobacco budworm I microtiter plate diet test; details: 2500 ppm; tobacco budworm eggs and larvae on diet; 5 days
# Method: B.11 Tobacco Budworm (Heliothis virescens) I
# For evaluating control of tobacco budworm (Heliothis virescens) the test unit consisted of 96-well-microtiter plates containing an insect diet and 15-25 H. virescens eggs.
# The compounds were formulated using a solution containing 75% v/v water and 25% v/v DMSO. Different concentrations of formulated compounds were sprayed onto the insect diet at 10 μl, using a custom built micro atomizer, at two replications.
# as §1
# Myzus persicae = assay: B.4 Green peach aphid systemic test, artificial diet in 96-well plates; details: 2500 ppm, 3 days
# Excerpt: B.4 Green Peach Aphid (Myzus persicae)
# For evaluating control of green peach aphid (Myzus persicae) through systemic means the test unit consisted of 96-well-microtiter plates containing liquid artificial diet under an artificial membrane.
# The compounds were formulated using a solution containing 75% v/v water and 25% v/v DMSO. Different concentrations of formulated compounds were pipetted into the aphid diet, using a custom built pipetter, at two replications.
# After application, 5-8 adult aphids were placed on the artificial membrane inside the microtiter plate wells. The aphids were then allowed to suck on the treated aphid diet and incubated at about 23±1° C. and about 50±5% relative humidity for 3 days. Aphid mortality and fecundity was then visually assessed.
# Aphis craccivora = assay: B.2 Cowpea aphid spray test on potted cowpea plants; details: 500 ppm, sprayed plants, assessed after 24, 72 and 120 hours
# Method: B.2 Cowpea Aphid (Aphis craccivora)
# Potted cowpea plants colonized with approximately 100-150 aphids of various stages were sprayed after the pest population had been recorded. Population reduction was assessed after 24, 72, and 120 hours.
# Tetranychus kanzawai = assay: B.14 Red spider mite spray test on cowpea beans; details: 500 ppm; red spider mite on sprayed cowpea beans; 72 h
smiles,measurement,setting,value
"CCNC(=O)NN=Cc1ccc(N2CCC(c3cc(Cl)cc(Cl)c3)(C(F)(F)F)C2)cc1C (centres unmarked) [Compound 1-1, 4-[3-(3,5-dichloro-phenyl)-3-trifluoromethyl-pyrrolidin-1-yl]-2-methyl-benzaldehyde-ethylsemicarbazone]",mortality in comparison with untreated controls,Plutella xylostella,at least 75%
same,mortality in comparison with untreated controls,Ceratitis capitata,at least 75%
same,mortality in comparison with untreated controls,Megoura viciae,at least 75%
same,mortality in comparison with untreated controls,Spodoptera eridania,at least 75%
same,mortality in comparison with untreated controls,Anthonomus grandis,at least 75%
same,mortality in comparison with untreated controls,Heliothis virescens,at least 75%
same,mortality in comparison with untreated controls,Myzus persicae,at least 75%
CCNC(=S)NN=Cc1ccc(N2CCC(c3cc(Cl)cc(Cl)c3)(C(F)(F)F)C2)cc1C (centres unmarked) [Compound 1-2],mortality in comparison with untreated controls,Heliothis virescens,at least 75%
Cc1cc(N2CCC(c3cc(Cl)cc(Cl)c3)(C(F)(F)F)C2)ccc1C=NNC(=O)NCCC(F)(F)F (centres unmarked) [Compound 1-8],mortality in comparison with untreated controls,Aphis craccivora,at least 75%
Cc1cc(N2CCC(c3cc(Cl)cc(Cl)c3)(C(F)(F)F)C2)ccc1C=NNC(=O)NCC(F)F (centres unmarked) [Compound 1-9],mortality in comparison with untreated controls,Tetranychus kanzawai,at least 75%
Cc1cc(N2CCC(c3cc(Cl)cc(Cl)c3)(C(F)(F)F)C2)ccc1C=NNC(N)=O (centres unmarked) [Compound 1-10],mortality in comparison with untreated controls,Spodoptera eridania,at least 75%
CCNC(=S)NN=Cc1ccc(N2CCC(c3cc(Cl)cc(Cl)c3)(C(F)(F)F)C2)cc1Cl (centres unmarked) [Compound 2-2],mortality in comparison with untreated controls,Heliothis virescens,at least 75%
same,mortality in comparison with untreated controls,Myzus persicae,at least 75%
O=C(NCC(F)F)NN=Cc1ccc(N2CCC(c3cc(Cl)cc(Cl)c3)(C(F)(F)F)C2)cc1Cl (centres unmarked) [Compound 2-9],mortality in comparison with untreated controls,Tetranychus kanzawai,at least 75%
